Experimental data reported in US20070003983A1.
No constants are given. Whether binding was seen depends on the method and setting. For part of these data: In cells and extracts the contact can be indirect. Some entries that bind do so weakly or less than the wild type.

Key:
[1] = target: T1, Drosophila Notch N^TM fragment (110 kd) (Drosophila) (UniProt P07207); assay: conclusion from the EDTA release and sucrose gradient experiments
T1 sequence: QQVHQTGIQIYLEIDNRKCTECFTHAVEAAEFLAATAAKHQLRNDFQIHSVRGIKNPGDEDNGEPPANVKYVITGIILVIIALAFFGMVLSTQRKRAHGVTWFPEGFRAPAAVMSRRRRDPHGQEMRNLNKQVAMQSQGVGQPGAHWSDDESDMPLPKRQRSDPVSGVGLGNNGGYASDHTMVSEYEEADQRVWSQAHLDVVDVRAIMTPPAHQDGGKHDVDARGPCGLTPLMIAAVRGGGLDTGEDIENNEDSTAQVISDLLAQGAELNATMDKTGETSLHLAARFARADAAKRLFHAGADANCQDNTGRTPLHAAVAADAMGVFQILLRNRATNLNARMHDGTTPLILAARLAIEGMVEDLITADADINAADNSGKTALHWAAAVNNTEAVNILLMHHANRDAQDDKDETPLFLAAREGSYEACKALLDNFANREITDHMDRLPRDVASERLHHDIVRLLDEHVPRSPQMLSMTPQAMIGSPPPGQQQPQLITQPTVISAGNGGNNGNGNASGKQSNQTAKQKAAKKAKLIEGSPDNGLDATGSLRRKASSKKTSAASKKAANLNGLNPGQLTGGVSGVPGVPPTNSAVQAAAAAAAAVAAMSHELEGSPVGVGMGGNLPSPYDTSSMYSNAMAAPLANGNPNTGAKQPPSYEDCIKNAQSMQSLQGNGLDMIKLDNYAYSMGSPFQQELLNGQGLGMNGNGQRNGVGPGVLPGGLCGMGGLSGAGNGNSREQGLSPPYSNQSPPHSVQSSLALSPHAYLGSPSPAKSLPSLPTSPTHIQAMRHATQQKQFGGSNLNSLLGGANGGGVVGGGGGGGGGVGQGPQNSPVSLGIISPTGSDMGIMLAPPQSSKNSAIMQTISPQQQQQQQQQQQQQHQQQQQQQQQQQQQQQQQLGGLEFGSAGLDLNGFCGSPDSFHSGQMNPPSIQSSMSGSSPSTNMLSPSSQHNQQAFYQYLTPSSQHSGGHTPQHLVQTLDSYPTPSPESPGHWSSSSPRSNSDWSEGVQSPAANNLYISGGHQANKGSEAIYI

[2] = target: T1, Drosophila Notch N^TM fragment (110 kd) (Drosophila); assay: release of N^EC from S2 cells in EDTA against CaCl2; sucrose density centrifugation
[3] = target: T1, Drosophila Notch N^TM fragment (110 kd) (Drosophila); assay: Western blot (C461.3B) of supernatants of S2 cells kept 1 h in 2 mM CaCl2 or 2 mM EDTA
[4] = target: T1, Drosophila Notch N^TM fragment (110 kd) (Drosophila); assay: 5-20% sucrose gradient sedimentation of Triton X-100 S2 cell extracts, Western blot with C461.3B and 9C6
[5] = target: T2, human Notch2 N^TM fragment (about 110 kDa transmembrane/intracellular cleavage product) (human) (UniProt Q04721); assay: co-immunoprecipitation with PGHN (intracellular epitopes) from 35S-pulse-labeled SJ-NB5 cells
T2 sequence: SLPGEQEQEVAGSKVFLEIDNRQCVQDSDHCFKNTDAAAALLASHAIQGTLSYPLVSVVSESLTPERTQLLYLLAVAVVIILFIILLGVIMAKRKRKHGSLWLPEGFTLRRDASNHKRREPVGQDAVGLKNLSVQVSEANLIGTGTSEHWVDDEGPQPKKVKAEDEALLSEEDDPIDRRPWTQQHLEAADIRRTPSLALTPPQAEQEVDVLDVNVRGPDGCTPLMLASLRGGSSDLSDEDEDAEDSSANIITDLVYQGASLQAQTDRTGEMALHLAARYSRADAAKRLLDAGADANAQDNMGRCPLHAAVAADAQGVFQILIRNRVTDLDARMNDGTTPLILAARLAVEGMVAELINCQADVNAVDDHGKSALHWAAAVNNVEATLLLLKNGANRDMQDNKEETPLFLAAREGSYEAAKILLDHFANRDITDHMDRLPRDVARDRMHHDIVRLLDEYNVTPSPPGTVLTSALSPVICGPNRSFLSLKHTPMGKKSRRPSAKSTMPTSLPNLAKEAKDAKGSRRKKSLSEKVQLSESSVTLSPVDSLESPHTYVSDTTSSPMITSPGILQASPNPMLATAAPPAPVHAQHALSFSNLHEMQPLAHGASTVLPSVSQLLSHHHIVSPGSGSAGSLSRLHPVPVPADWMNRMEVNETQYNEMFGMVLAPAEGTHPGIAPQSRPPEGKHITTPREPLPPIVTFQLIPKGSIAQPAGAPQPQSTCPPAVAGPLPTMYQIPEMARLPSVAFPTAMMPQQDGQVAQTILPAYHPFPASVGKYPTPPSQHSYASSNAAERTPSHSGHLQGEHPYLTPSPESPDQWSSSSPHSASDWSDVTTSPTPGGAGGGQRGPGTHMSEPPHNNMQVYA

[6] = target: T2, human Notch2 N^TM fragment (about 110 kDa transmembrane/intracellular cleavage product) (human); assay: pulse chase, surface biotinylation, PGHN immunoprecipitation then streptavidin precipitation
[7] = target: T2, human Notch2 N^TM fragment (about 110 kDa transmembrane/intracellular cleavage product) (human); assay: co-immunoprecipitation with PGHN from 35S-pulse-labeled SJ-NB5 cells
[8] = target: heterodimeric form of Drosophila Notch (N^EC/N^TM) on S2 cells (Drosophila) (UniProt P07207); assay: co-immunoprecipitation with Delta antibodies from aggregates of Notch and Delta expressing S2 cells; lost when calcium is depleted by EGTA (data not shown)
[9] = target: heterodimeric form of Drosophila Notch (N^EC/N^TM) on S2 cells (Drosophila) (UniProt P07207); assay: co-immunoprecipitation with Delta antibodies from aggregates of Notch and Delta expressing S2 cells, Western blot with 9C6

Measured: binding

Drosophila Notch N^EC fragment (from UniProt P07207 53-1674) (receptor)
binds: [1] | [2] | [3] | [4]

human Notch2 N^EC fragment (about 180 kDa extracellular cleavage product) (from UniProt Q04721 26-1608) (receptor)
binds: [5] | [6] | [7]

B1: Delta (ligand, Drosophila, UniProt P10041 19-833, looked up)
chain: QVHSSGSFELRLKYFSNDHGRDNEGRCCSGESDGATGKCLGSCKTRFRVCLKHYQATIDTTSQCTYGDVITPILGENSVNLTDAQRFQNKGFTNPIQFPFSFSWPGTFSLIVEAWHDTNNSGNARTNKLLIQRLLVQQVLEVSSEWKTNKSESQYTSLEYDFRVTCDLNYYGSGCAKFCRPRDDSFGHSTCSETGEIICLTGWQGDYCHIPKCAKGCEHGHCDKPNQCVCQLGWKGALCNECVLEPNCIHGTCNKPWTCICNEGWGGLYCNQDLNYCTNHRPCKNGGTCFNTGEGLYTCKCAPGYSGDDCENEIYSCDADVNPCQNGGTCIDEPHTKTGYKCHCANGWSGKMCEEKVLTCSDKPCHQGICRNVRPGLGSKGQGYQCECPIGYSGPNCDLQLDNCSPNPCINGGSCQPSGKCICPAGFSGTRCETNIDDCLGHQCENGGTCIDMVNQYRCQCVPGFHGTHCSSKVDLCLIRPCANGGTCLNLNNDYQCTCRAGFTGKDCSVDIDECSSGPCHNGGTCMNRVNSFECVCANGFRGKQCDEESYDSVTFDAHQYGATTQARADGLTNAQVVLIAVFSVAMPLVAVIAACVVFCMKRKRKRAQEKDDAEARKQNEQNAVATMHHNGSGVGVALASASLGGKTGSNSGLTFDGGNPNIIKNTWDKSVNNICASAAAAAAAAAAADECLMYGGYVASVADNNNANSDFCVAPLQRAKSQKQLNTDPTLMHRGSPAGSSAKGASGGGPGAAEGKRISVLGEGSYCSQRWPSLAAAGVAGACSSQLMAAASVAGSGAGTAQQQRSVVCGTPHM
binds: [8] | [9]
